Test results: PubChem BioAssay AID651640 (Broad Institute, 2012)
Where “and” joins values, the source holds several entries; their conditions need not be identical. Equal values may be shown once. Out of some 350,000 compounds screened, about 6,000 (1.7%) were called active. The inconclusive results got no clear call from the source; some entries with a clear call stand among them for comparison. Rule as the data show it: active = CPE inhibition above about 20% (passing the limit was not always enough); inconclusive = no clear call, values can overlap the other calls; tested in BHK-21 cells. More than one record can exist for a structure, and the calls need not agree.

assay: protection of cells from dengue 2 killing – plate reader, single concentration, primary screen (AID 651640); details: DENV2-infected cells, cytopathic effect rescue, at 9.99 µM, hits give high values;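 also: 0% = median of neutral control wells and 100% = median of positive control wells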

SMILES | CPE inhibition
CNC[C@@H]1Oc2c(NC(=O)Nc3ccc(C(F)(F)F)cc3)cccc2C(=O)N([C@@H](C)CO)C[C@@H]1C | inactive: 0.399%
COC(=O)c1c(NC(=O)CC2Sc3ccc(C(F)(F)F)cc3NC2=O)sc(C)c1C (stereo unspecified) | active: 24.7%
O=C(C[C@H]1C=C[C@H](NC(=O)C2CC2)[C@H](CO)O1)Nc1ccccc1 | inconclusive: 24.4%
O=C(CC1NCCN(Cc2ccccc2)C1=O)Nc1ccccc1 (stereo unspecified) | active: 71.6%
COc1ccc(CNCCC(c2ccc(OC(C)C)cc2)c2ccccc2OC)cc1OC (stereo unspecified) | inactive: 3%
CCN(C(=O)C(C)OC(=O)C1C(C(=O)OC)=C(C)NC(C)=C1C(=O)OC)c1ccccc1 (stereo unspecified) | inactive: -5.33%
Cc1cccc(S(=O)(=O)N[C@@H]2CC[C@@H](CCNC(=O)Nc3cc(F)ccc3F)O[C@@H]2CO)c1 | active: 39.1%
CCOC(=O)C1CCN(C(=O)CCCNC(=O)Cn2cnc3sc(C)c(C)c3c2=O)CC1 | inconclusive: 28.6%
Cc1cccc(-c2ccc([C@H]3[C@H](CO)N4CCCCN(Cc5ccncc5)C[C@@H]34)cc2)c1 | inactive: -6.78%
COc1cccc2cc(C(=O)N3CC(C)OC(C)C3)c(=O)oc12 (stereo unspecified) | inactive: 7.37%
C[C@H]1CN([C@@H](C)CO)S(=O)(=O)c2ccc(-c3ccc(F)cc3)cc2O[C@@H]1CN(C)C(=O)Nc1ccccc1F | inconclusive: 32.9%
COC(=O)C[C@H]1c2cc(C(F)(F)F)ccc2S(=O)(=O)N1Cc1ccc(OC)cc1 | active: 20.2%
C[C@H](CO)N1C[C@H](C)[C@@H](CN(C)Cc2ccc3c(c2)OCO3)Oc2ccc(NC(=O)CCCCCC(=O)Nc3ccccc3N)cc2C1=O | active: 28.4%
O=C(NC1(Cc2ccccc2)CCN(CCc2cccs2)C1=O)c1ccccc1 (stereo unspecified) | active: 72%
CC(C)(C)[C@H]1C=C(C(=O)NCc2nc3ccccc3[nH]2)O[C@@H](OCc2ccc(CO)cc2)C1 | inconclusive: 67.1%
CC(Oc1ccc(Br)cc1)C(=O)Nc1cc(Cl)ccc1N1CCN(C)CC1 (stereo unspecified) | inconclusive: 28.5%
O=C(O)CN1C(=O)C=CC1=O | inactive: 0.782%
CCCc1c(C(=O)Nc2cc(C(C)(C)C)on2)cnn1-c1ccccc1 | active: 28.9%
Cc1ccccc1Nc1nc(N)nc(COC(=O)c2ccc3c(c2)OCCO3)n1 | inconclusive: 84.1%
C=CCn1cc(C(=O)N2CCN(CC)CC2)c(=O)c2cc(S(=O)(=O)N(CC)CC)ccc21 | inconclusive: 30.5%
C[C@H]1CN([C@@H](C)CO)C(=O)c2cc(C#CC3CCCCC3)cnc2O[C@@H]1CN(C)S(=O)(=O)c1ccc(F)cc1 | inconclusive: 60.9%
CN1CCN(C(=O)C[C@H]2CC[C@H]3[C@@H](COC[C@@H](O)CN3S(=O)(=O)c3cccc(Cl)c3)O2)CC1 | active: 76.2%
O=C(C[C@H]1CC[C@H](NC(=O)c2ccc(F)cc2)[C@@H](CO)O1)NCc1ccncn1 | inconclusive: 43%
C[C@@H]1CCCCO[C@H](CN(C)C(=O)C2CCCCC2)[C@H](C)CN([C@H](C)CO)C(=O)c2cc(NC(=O)c3ccncc3)ccc2O1 | inactive: 0.636%

Arranged by formula weight (descending): some entries from above
SMILES | CPE inhibition
Cc1cccc(S(=O)(=O)N[C@@H]2CC[C@@H](CCNC(=O)Nc3cc(F)ccc3F)O[C@@H]2CO)c1 | active: 39.1%
CCOC(=O)C1CCN(C(=O)CCCNC(=O)Cn2cnc3sc(C)c(C)c3c2=O)CC1 | inconclusive: 28.6%
O=C(C[C@H]1CC[C@H](NC(=O)c2ccc(F)cc2)[C@@H](CO)O1)NCc1ccncn1 | inconclusive: 43%
O=C(CC1NCCN(Cc2ccccc2)C1=O)Nc1ccccc1 (stereo unspecified) | active: 71.6%

For reference, part of the list above.
SMILES | CPE inhibition
CCN(C(=O)C(C)OC(=O)C1C(C(=O)OC)=C(C)NC(C)=C1C(=O)OC)c1ccccc1 (stereo unspecified) | inactive: -5.33%
Cc1cccc(S(=O)(=O)N[C@@H]2CC[C@@H](CCNC(=O)Nc3cc(F)ccc3F)O[C@@H]2CO)c1 | active: 39.1%

(further entries)

SMILES | CPE inhibition
CN(C)c1ccc(Cc2cc3c(O)ccc(O)c3cc(Cc3ccc(N(C)C)cc3)c2=O)cc1 | inactive: -3.13%
CC(=O)N1CCCc2cc(S(=O)(=O)Nc3ccccc3C)ccc21 | inactive: 1.08%
COc1ccccc1NC(=O)C(=O)NCCC1CCCCN1S(=O)(=O)c1cccs1 (stereo unspecified) | inconclusive: 32.2%
CO[C@@H]1CN(C)C(=O)c2cc(NC(=O)c3cnccn3)ccc2OC[C@H](C)N(CC2CC2)C[C@@H]1C | inactive: -9.4%
COc1ccc2oc(C(=O)OCC(=O)NC3(C#N)CCCC3)c(C)c2c1 | inconclusive: 38.1%
O=C(C1CCC1)N1CC(=O)N2[C@H](CO)[C@H](c3ccc(C#CCc4ccccc4)cc3)[C@@H]2C1 | inconclusive: 31.6%
CNC[C@H]1Oc2ccc(NS(=O)(=O)c3ccc(C)cc3)cc2C(=O)N([C@H](C)CO)C[C@@H]1C | inconclusive: 25.5%
C[C@H](CO)N1C[C@H](C)[C@H](CN(C)Cc2ccc(Oc3ccccc3)cc2)Oc2ccc(NC(=O)CCCN(C)C)cc2CC1=O | inactive: -10.4%
CCCCC1=CC2=C(c3ccco3)C(=O)C(C)(OC(=O)c3ccc(OC)cc3)C(=O)C2=CN1C(CO)CO (stereo unspecified) | inconclusive: 25.8%
CCOc1ccc(CCNS(=O)(=O)c2ccc3c(c2)N(C(C)=O)CCO3)cc1OCC | inconclusive: 26.2%
CCCNC(=O)C1(C)CCN(C(=O)c2ccc3snnc3c2)C1 (stereo unspecified) | inconclusive: 49.8%
O=C(C[C@@H]1CC[C@H]2[C@@H](COC[C@@H](O)CN2C(=O)c2ccncc2)O1)NCc1cc(F)cc(F)c1 | inconclusive: 33.7%
C#CCNC(=O)C[C@H]1C[C@@]2(C(=O)OC)C(=C[C@H](C(C)(C)C)O[C@@H]2C)N(CCCCCCCC)C1=O | inconclusive: 25.5%
CCOc1ccc(Nc2nc3c(C)cccc3cc2C#N)cc1 | inconclusive: 27.8%
COc1ccc(CN2C[C@H](O)COC[C@H]3O[C@@H](CC(=O)N(C)C)CC[C@@H]32)cc1 | inconclusive: 22.5%
C/C=C/c1cccc(-c2nc(C(=O)NCc3ccncc3)cc3c2[C@@H](CCO)N([S@](=O)C(C)(C)C)C3)c1 | inactive: 3.33%
O=C(C[C@H]1C[C@H]2c3cc(NC(=O)Nc4ccccc4F)ccc3O[C@H]2[C@@H](CO)O1)NCCc1ccccc1 | inactive: 3.38%
OC[C@H]1[C@H](c2ccc(C#Cc3ccccc3)cc2)[C@@H]2CN(CC3CCOCC3)CCCCN12 | inactive: -1.79%
Cc1cccc(-c2cnc(C(O)c3ccc4ccccc4c3)[nH]2)c1 (stereo unspecified) | inconclusive: 34.8%
Cc1ccc(S(=O)(=O)N[C@@H]2C=C[C@@H](CC(=O)NCCN3CCCCC3)O[C@@H]2CO)cc1 | inactive: 2.09%
Cc1noc(C)c1S(=O)(=O)N(C)C[C@H]1OCCCC[C@H](C)Oc2ccc(NC(=O)Nc3ccc(F)cc3)cc2C(=O)N([C@@H](C)CO)C[C@@H]1C | active: 72.8%
O=[N+]([O-])c1ccc(Sc2ccncn2)c([N+](=O)[O-])c1 | inactive: 2.91%
COc1ccc(S(=O)(=O)N(CC(C)C)CC(C)C)c2cccnc12 | active: 57.1%
C[C@@H]1CN([C@H](C)CO)C(=O)c2cc(NC(=O)CCCN(C)C)ccc2O[C@@H](C)CCCCO[C@@H]1CN(C)C(=O)Nc1ccccc1 | inconclusive: 23.4%

SMILES | CPE inhibition
CC(C)(C)CC(=O)NCCCN1CCOCC1 | inconclusive: 20.6%
C[C@H](CO)N1C[C@H](C)[C@H](CN(C)C(=O)Cc2cccnc2)Oc2ncc(C#CCN(C)C)cc2C1=O | inconclusive: 24.1%
C[C@@H]1CCCCO[C@@H](CN(C)Cc2ccc3c(c2)OCO3)[C@H](C)CN([C@H](C)CO)C(=O)c2cc(NC(=O)CCC(F)(F)F)ccc2O1 | inactive: 13%
CCCNC(=O)Nc1ccc2c(c1)C(=O)N(C)C[C@H](OC)[C@H](C)CN(Cc1cncnc1)[C@H](C)CO2 | active: 53.3%
C[C@@H]1CN([C@@H](C)CO)C(=O)c2cc(C#CCC3CCCC3)cnc2O[C@@H]1CN(C)C(=O)CN(C)C | inactive: -3%
C[C@H](CO)N1C[C@H](C)[C@@H](CN(C)S(=O)(=O)c2ccccc2)Oc2c(cccc2N(C)C)C1=O | inconclusive: 32.7%
O=C(C1CCCC1)N1CC[C@@H]2[C@H](CO)Nc3ccc(-c4cccc(F)c4)cc3[C@@H]21 | inactive: -5.97%
CC(=O)N(C)C[C@H]1Oc2cc(C#CCC(C)C)ccc2S(=O)(=O)N([C@H](C)CO)C[C@@H]1C | inactive: -8.22%
Cc1cccc(S(=O)(=O)N(C)C[C@H]2OCc3cn(nn3)CCCC(=O)N([C@@H](C)CO)C[C@@H]2C)c1 | active: 47.2%
CNc1ccc(C=C2C=Cc3ccccc32)cc1 | inactive: -2.44%
O=C(N[C@H]1CC[C@@H](CCNS(=O)(=O)c2ccc(F)cc2)O[C@H]1CO)C1CCOCC1 | active: 37.8%
CN(C)c1cccc(CNC(=O)c2csc(COCCO)n2)c1 | inconclusive: 24.9%
CCOc1ccccc1NC1=C(OC)C(=O)C(Nc2ccccc2OCC)=C(OC)C1=O | inconclusive: 66.7%
O=C(C[C@H]1C=C[C@@H](NC(=O)C2CCOCC2)[C@@H](CO)O1)Nc1ccc(-c2ccccc2)cc1 | inconclusive: 31.8%
O=C(COc1cccc(NC(=O)c2ccccc2)c1)c1ccccc1 | inactive: 0.141%
COc1cccc(NC(=O)c2cccc(C(=O)Nc3cccc(OC)c3)c2)c1 | inactive: -0.829%
CCCC(O)C#Cc1cnc2c(c1)C(=O)N([C@H](C)CO)C[C@H](C)[C@H](CN(C)Cc1ccc3c(c1)OCO3)O2 (stereo partly specified) | inconclusive: 41.9%
CCc1ccc(C(=O)N2CCN(c3ccc(NC(=O)c4cccnc4)cc3)CC2)cc1 | inconclusive: 40.1%
COc1ccc(NS(=O)(=O)c2ccc3oc(SCC(N)=O)nc3c2)cc1 | inconclusive: 44.9%
CC(Oc1cc2oc(=O)c3c(c2cc1Cl)CCCC3)C(=O)NCc1cccnc1 (stereo unspecified) | inconclusive: 20.2%
C[C@@H]1CN([C@@H](C)CO)C(=O)Cc2cc(NC(=O)Nc3ccc4c(c3)OCO4)ccc2O[C@H]1CN(C)Cc1ccc(C(F)(F)F)cc1 | inactive: 0.91%
C[C@@H]1CN([C@H](C)CO)C(=O)c2cc(Br)cnc2O[C@H]1CN(C)Cc1cccnc1 | inactive: -5.79% and inactive: 6%
C[C@H](CO)N1C[C@H](C)[C@@H](CN(C)C(=O)NC2CCCC2)OCc2cn(nn2)CCCC1=O | inconclusive: 39%
